# PMC7819943, “Rice protein-binding microarrays: a tool to detect cis-acting elements near promoter regions in rice”
# The list shows a part of the results.
# Biological target: T1, OsSMF1 (Oryza sativa, UniProt Q6ZLB0 1-436)
# T1 sequence: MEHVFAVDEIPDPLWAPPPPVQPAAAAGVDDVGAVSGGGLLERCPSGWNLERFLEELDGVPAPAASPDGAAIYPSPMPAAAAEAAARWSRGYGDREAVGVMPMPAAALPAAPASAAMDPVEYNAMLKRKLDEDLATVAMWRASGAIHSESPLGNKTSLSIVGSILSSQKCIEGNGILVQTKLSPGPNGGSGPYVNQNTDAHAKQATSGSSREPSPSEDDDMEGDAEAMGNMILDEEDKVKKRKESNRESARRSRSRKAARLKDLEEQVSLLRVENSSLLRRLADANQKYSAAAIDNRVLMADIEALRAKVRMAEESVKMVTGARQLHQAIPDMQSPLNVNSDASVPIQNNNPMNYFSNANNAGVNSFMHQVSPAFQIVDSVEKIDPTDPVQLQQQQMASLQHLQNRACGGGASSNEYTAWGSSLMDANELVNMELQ
# Experiment: protein-binding microarray (RPBM); PBS, 2% BSA, 51.3 ng/ul salmon testes DNA, 50 uM zinc acetate, 200 nM TF, 25 C, 1 h; high values mean tight binding
# Conditions: protein: recombinant; tags: N-terminal polyhistidine and DsRed monomer fusion (pET32a); chain copies: 2; label: CyDye5-dUTP incorporated in the synthesized complementary strand; 3' TTTTT single-stranded linker to array surface; dsDNA, one strand shown
# Procedure, shortened: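 Transcription factors, each fused N-terminally to a polyhistidine tag and DsRed, were expressed in E. coli BL21-CodonPlus and purified on Ni–NTA. A custom Agilent array was made double-stranded by primer extension with Cy5-dUTP and blocked with 2% BSA. It was incubated with 200 nM protein in PBS, 2% BSA, salmon testes DNA and 50 µM zinc acetate at 25 °C for 1 h, then washed. The binding signal is per-feature fluorescence intensity (arbitrary units) read on an Axon 4000B scanner.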
row,Sequence,binding signal
1,CAAACCAAGTCACGGTACACGCGTGGACCGCGCACAGATTCGGAGTCACCTAGTGCAG,3720 fluorescence intensity (a.u.)
2,TGCTTCTGATACTCACGTATATTTCATACACACGTGAATGCGGAGTCACCTAGTGCAG,3210 fluorescence intensity (a.u.)
3,TCGGGTCTCCGCGATGCCGACGCGGACGCCATCGGAGCGCCGGAGTCACCTAGTGCAG,3730 fluorescence intensity (a.u.)
4,ACCAGATACTACTCTAATATCATCGTCATGACATGGAGTACGGAGTCACCTAGTGCAG,5240 fluorescence intensity (a.u.)
5,ACCCACCTATTTTACCCTAGCCTAGTTTGCCACGACCTGGCGGAGTCACCTAGTGCAG,3980 fluorescence intensity (a.u.)
6,CAGTTAACCACCTAACTGATCAAACTCATTCATGTCACTCCGGAGTCACCTAGTGCAG,5110 fluorescence intensity (a.u.)
7,GTGCAGGTAATTGACAGATCATTTGGTTTCGACACTGCAGCGGAGTCACCTAGTGCAG,4100 fluorescence intensity (a.u.)
8,TGGACGGCGTCGCGCGCGGCATATGGATGGACACGGCACCCGGAGTCACCTAGTGCAG,3460 fluorescence intensity (a.u.)
9,ATGTCTAAACTATCTTAGGACTACATTTACGCTGGTTTTGCGGAGTCACCTAGTGCAG,3280 fluorescence intensity (a.u.)
10,AGTAGTGAAGATCATCTCTATCGGAATTAGAGTATCAACACGGAGTCACCTAGTGCAG,18300 fluorescence intensity (a.u.)
11,GCCGACGCCGCGAGGGGCTACGTCACCGTCTCCACATCCACGGAGTCACCTAGTGCAG,9850 fluorescence intensity (a.u.)
12,CGCAGGCAGATCGGGTTAGTCACCGTCTCTCCGCCGCCGTCGGAGTCACCTAGTGCAG,3530 fluorescence intensity (a.u.)
13,GATGTGTGGTGATGGCCTAGGATGTGGGATGGATTTGTGGCGGAGTCACCTAGTGCAG,4440 fluorescence intensity (a.u.)
14,CCATCCATCCAATCGCCACCTGAGGTGGAATGTTTGTTTCCGGAGTCACCTAGTGCAG,3550 fluorescence intensity (a.u.)
15,ATCACCGCTTACACCACACCCCGTGACGTGTCACTTTCCACGGAGTCACCTAGTGCAG,20700 fluorescence intensity (a.u.)
16,TTTACCATTGCGGGTGCTCTAATAGGTGGCATGCCATGCGCGGAGTCACCTAGTGCAG,4740 fluorescence intensity (a.u.)
17,TTGTGTTCAGCTGGTCGAAGCAGCGCGGCCGCTGGCGTGGCGGAGTCACCTAGTGCAG,31700 fluorescence intensity (a.u.)
18,TTAATTTGATGCTACTAGGTCACTACTATTTTGGTACTATCGGAGTCACCTAGTGCAG,4590 fluorescence intensity (a.u.)
19,GACATGTGTATCATGTCGGTACAATTTATGACATCAACATCGGAGTCACCTAGTGCAG,3660 fluorescence intensity (a.u.)
20,TTGATCGATTCGGCAGAGTTTGCTTTGTCCACTTCATCGGCGGAGTCACCTAGTGCAG,3400 fluorescence intensity (a.u.)
21,AGCCCCAACGAGCCCCAACGAGCCCCAACGGTGAATCCGCCGGAGTCACCTAGTGCAG,3520 fluorescence intensity (a.u.)

# Quoted from the listing:
# AGCCCCAACGAGCCCCAACGAGCCCCAACGGTGAATCCGCCGGAGTCACCTAGTGCAG – binding signal: 3520 fluorescence intensity (a.u.)
# ACCAGATACTACTCTAATATCATCGTCATGACATGGAGTACGGAGTCACCTAGTGCAG – binding signal: 5240 fluorescence intensity (a.u.)

# Next results follow.

row,Sequence,binding signal
1,TCTGAATGGACACGTTTTACAATCACATCACATAGAGTAACGGAGTCACCTAGTGCAG,3140 fluorescence intensity (a.u.)
2,TACACTCCAGCATCCAACTCACCATCTCCTCCTGTCCTCCCGGAGTCACCTAGTGCAG,4570 fluorescence intensity (a.u.)
3,TTTGGGTCACCGACATGTGGGGACAGGTGTGGACCGGCGTCGGAGTCACCTAGTGCAG,16700 fluorescence intensity (a.u.)
4,CCCGCCGCCAGCTTCCCGTTGACTAGGATTGTTGACCCTACGGAGTCACCTAGTGCAG,5480 fluorescence intensity (a.u.)
5,ATACATACATGGGAGCAAGTATTAGTATGTCAATGTAATGCGGAGTCACCTAGTGCAG,3910 fluorescence intensity (a.u.)
6,AATAATTTATAAATTGTTGCGTGTATTTGTACTTAGCATACGGAGTCACCTAGTGCAG,4470 fluorescence intensity (a.u.)
7,GGGAAAATCGACCACCCACGACAGCTGACGTCAGCATGTACGGAGTCACCTAGTGCAG,20400 fluorescence intensity (a.u.)
8,GAGCACGTAAGAACACACATGTACACCCCAGCTACGTACGCGGAGTCACCTAGTGCAG,3700 fluorescence intensity (a.u.)
9,TTTTATAATTGTTCGAGCTTAGCGGCGTCGCTGACTCCGACGGAGTCACCTAGTGCAG,4420 fluorescence intensity (a.u.)
10,AATGAAGGGGAGTCGATGACTCCGCTGTCCGCTCTGCCTACGGAGTCACCTAGTGCAG,3350 fluorescence intensity (a.u.)
11,CCCACACGTTAGTGACTCAATGTCACGGGAATGTCACCGGCGGAGTCACCTAGTGCAG,5320 fluorescence intensity (a.u.)
12,TGCTCAGCTCTGTCATGCAATGCAACAGGCCGTGCCAACGCGGAGTCACCTAGTGCAG,3300 fluorescence intensity (a.u.)
13,TTTAGGAATACATGTCTGGCTTCTGTTCATACGTAAAGGGCGGAGTCACCTAGTGCAG,3140 fluorescence intensity (a.u.)
14,GATAGTCTCTACCCCATCTAATCTAGCCTATCGCTCTTGTCGGAGTCACCTAGTGCAG,3340 fluorescence intensity (a.u.)
15,GAGACCCACCGTCTGCCGTGGCGCCGTGGCGGGGACGACGCGGAGTCACCTAGTGCAG,4110 fluorescence intensity (a.u.)
16,CTCGCAGTCGTCGCAGCTGGCTCAGCTCAACCTCTCCAGCCGGAGTCACCTAGTGCAG,3220 fluorescence intensity (a.u.)
17,AAAGTGACTGTAGATGATGTATTAATTTTGAAAGGTAGCACGGAGTCACCTAGTGCAG,4440 fluorescence intensity (a.u.)
18,ATTCCCTCGTCGCCAGCGGTTTCGCGTTGCCGCGTTCGTCCGGAGTCACCTAGTGCAG,3840 fluorescence intensity (a.u.)
19,AGATGGCGGCGGCGGCGCAGATCCGGCCTCCACGCGCGCACGGAGTCACCTAGTGCAG,3940 fluorescence intensity (a.u.)
20,TTTTCTTTTATTTTCCACCGGTACTGTTCATTGCGCACCACGGAGTCACCTAGTGCAG,3270 fluorescence intensity (a.u.)
21,TTTTCTCATCCTAAATTCCTAATAACTAGAAAAGATGACCCGGAGTCACCTAGTGCAG,26000 fluorescence intensity (a.u.)
